Test results: PubChem BioAssay AID1508600 (Functional Genomics Laboratory (NCATS/FGL), 2020)
Out of some 53,000 sequences screened, about 3,700 (7%) were called active.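 The calls were made as follows: active = gene knockdowns whose robust z-score for IL-1 alpha signal is at least 2 or at most -2, so actives lie on both sides; inactive = the rest.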 This is one part of the list.

Assay: Components of the Cytosolic LPS Sensing Pathway: Gene Identification via Genome-wide siRNA Screen;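 also: robust z of the log signal after scaling to non-targeting control siRNA wells of the plate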
Conditions: RAW264.7 macrophages, IL-1a HTRF, actives lie on both sides, screened at 100 nM (by protocol), cells primed 5 h with Pam3CSK4 first
Method in brief: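 RAW264.7 mouse macrophages reverse-transfected with single siRNAs (100 nM final) for 48h, primed with Pam3CSK4 for 5 hours, then transfected with LipidA for 24 hour. Supernatant IL-1a read by HTRF; values normalized to negative-control median, log-transformed robust z-scores.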
For GGUCUGGAGACAAUCAUCATT against Rnf222, the z-score was active: -2.47. For GGCAGCAAACCUUUGCUAUTT against Itfg2, the z-score was inactive: 1.39. For GGACCUGAACACAGCUACUTT against Stoml1, the z-score was inactive: 1.04. With UUCUAUGCCAUAUCCAUCATT against Olfr645 the z-score was inactive: 1.52. With GGUACUGCUGCUUCAGCAUTT against Pakap the z-score was inactive: -0.831. With GCAAGUAUAUUAGAUGAGCTT against Smtnl1 the z-score was inactive: -0.16. With GGAAAAUGCCUCAAGACUUTT against Wdr5b the z-score was inactive: -0.0565. For GGUUCAAUUCAAGUCUUUATT against Olfr195, the z-score was inactive: 0.339. For GGUUACUAUGGAGACCUGGTT against Mia, the z-score was inactive: 0.429. With GGGAGGAUGCUGUUUCCAATT against Ssr3 the z-score was inactive: 0.683. For GGCACAGAAAACAGUCAAATT against Trmt1l, the z-score was inactive: 0.0602. In the case of AGCAGAAAAAGGAAGGCCATT against Xlr3c, the z-score is reported as inactive: 0.733. With CCACUUAUAUUUGAUCUCATT against Ift80 the z-score was inactive: 0.306. For GGAAUGAGAUUUCUUCAUGTT against Itih2, the z-score was inactive: -0.384. With GCCUUCAUUCUGGUAGCUATT against Olfr207 the z-score was inactive: -1.14. In the case of GGAAGACUCAGAGAUCCGATT against Atp13a1, the z-score is reported as inactive: -0.319. For CGGCUAUGUCCGUCAUUGGTT against Hypk, the z-score was inactive: -0.268. In the case of GGCAGCUGUAGAGGUGUUCTT against Haus7, the z-score is reported as active: 2.36. For GGCAUUCCUCUUGAAUAUUTT against Dck, the z-score was inactive: -0.805. For GGAGGAUUUAAACCGGGAGTT against Ugt1a7c, the z-score was inactive: -0.0287. In the case of GCGAUAUGCCCUAACUGGATT against Mmp24, the z-score is reported as inactive: 0.967. With GGUGCAAAGGCUCAAACAGTT against Rasd1 the z-score was inactive: -0.331. With GGAGUUAAACCACUCAAGATT against Ceacam11 the z-score was inactive: -0.262. In the case of GGAAUUGUCUAACAGGCUGTT against Hoxd12, the z-score is reported as inactive: -0.025. In the case of GGACAGAGUUCGAUCGACUTT against Gramd4, the z-score is reported as inactive: 0.504. In the case of GCAGUUCUACGGACAUUUCTT against Pcdhb1, the z-score is reported as inactive: 0.147. With CCUGUUUAGCAUCUGGGAGTT against Gpr1 the z-score was active: 6.24. In the case of CGGUAUUUCGGCAUAAUAATT against Chek1, the z-score is reported as inactive: -1.26. In the case of GGUACCAACAAGAUGACUGTT against Irgm2, the z-score is reported as inactive: 0.835. With GGCUUUGAACAGGAAAGACTT against Ube2z the z-score was inactive: -0.417. With GCUUUUUGAGUCUGAUUUATT against Dmgdh the z-score was inactive: 0.413. For GGGCAGUCCAGGAAGAUUGTT against Akap3, the z-score was inactive: -0.929. For CCUUUUUUGUCGUACGUUUTT against Prkx, the z-score was inactive: 0.149. For GGCAGCAUUUAUGGAGUACTT against Colgalt1, the z-score was inactive: -1.4. With CCGUGAGAGUUUGGUGGUATT against Mcm2 the z-score was inactive: -0.963. For “GCAAGAUUGGAAUGCUCCATT against 3830403N18Rik”, the z-score was inactive: 0.309. In the case of GCCUGAAUUUGUAAGCAGUTT against Fgf1, the z-score is reported as inactive: 0.0666. In the case of GGAAUAAGUCGGGCUAUCUTT against Dffb, the z-score is reported as inactive: -0.582. With GGGCAAGUUUCAUGGAAAUTT against Stat4 the z-score was inactive: 0.103. With GGAGAGCUAGCUUGACAUGTT against Tceanc2 the z-score was inactive: -0.397. With CGACCCUACAGAGGACAUUTT against Pik3r6 the z-score was inactive: 0.135. In the case of GGUACAUUGAGAACAACAGTT against Axin2, the z-score is reported as inactive: -0.43. For GGAUCAGUUGAUCUCAGUGTT against Olfr1406, the z-score was inactive: -0.52. With GCUAACAGUAUCCUUAUUUTT against Vmn1r53 the z-score was inactive: -0.436. With GGAAGCACUCAGUGCUCUGTT against Igfbp6 the z-score was active: 2.06. For GCUUUGGUUGCUAACCCAATT against Slc45a2, the z-score was inactive: 0.407. With GGGAUAUCGUUUGGUAUAGTT against Saa4 the z-score was inactive: -0.677. For GGACAGCAAGAUGAAGAUGTT against Il17ra, the z-score was inactive: -1.32. For CGAAGUUCCCUUUGAGUUUTT against Noa1, the z-score was inactive: -0.305. In the case of GCUAAGCUAGAACAUGAAUTT against Mapre1, the z-score is reported as inactive: -0.932. With GCAGAUUGGCGAUACCCUGTT against Alcam the z-score was inactive: -1.57. For GGGCCAAUAAAGAGGACAGTT against Aanat, the z-score was active: 2.38. For GCUCCACUUUGGAGUUGGATT against Trub2, the z-score was inactive: 0.0788. In the case of GGCAGCAGCAAGUUUCUUCTT against Rbm38, the z-score is reported as active: -2.31. In the case of GGAAUCACGUUCCAAACAUTT against Vmn1r51, the z-score is reported as inactive: -1.35. In the case of GCUCGUUGUCUAGUUUGGGTT against Ube4b, the z-score is reported as inactive: 1.32. With GGAACUGCCCAGUUCUUAATT against Ppan the z-score was inactive: 0.424. For GCAAACUCCAGCUCAACGATT against Galnt4, the z-score was inactive: -1.19. In the case of GGCUCUAACAUGACAAUUUTT against Hyal1, the z-score is reported as inactive: -0.251. With GGAAGGCCGAGAAGAAUUCTT against Kat8 the z-score was inactive: -0.133. In the case of GCUUCCAGACAAGCUUCGATT against Mthfd1l, the z-score is reported as inactive: -1.01. With GGUCCUAAAGCCUUUUCUATT against Mrpl10 the z-score was inactive: 0.199. With GGUGGUUCACUGUAAGCCGTT against Spry4 the z-score was inactive: 1.04. In the case of CCUGUUCAAAAGGUAUACATT against Fignl1, the z-score is reported as inactive: -1.83. In the case of GCUCAAAUCGUACAAGUGUTT against Panx1, the z-score is reported as inactive: 0.214. For GGGCAAAGAACUGAACGAATT against Pfdn2, the z-score was inactive: -1.03. With GGUGCCAUUCAUCUUUCAATT against Tmprss3 the z-score was inactive: 1.85. For GGCAGGCAAUUCAAACAAUTT against Orm1, the z-score was inactive: -1.24. In the case of GGGUUUCCUGCCUGCUCAUTT against Litaf, the z-score is reported as inactive: -0.361. In the case of CCAACAAAAAGAUUACAACTT against Akap7, the z-score is reported as inactive: 0.77. With CCAGUAUGCACAAAUUUAATT against Uba3 the z-score was inactive: -0.197. In the case of GGCAUUAAACACUUGCCAGTT against Fshr, the z-score is reported as inactive: -0.566. In the case of GGCCUUAAGGUCCAUUAUCTT against Zfp954, the z-score is reported as inactive: -0.854. In the case of GUACUUUCUUGAACCAGAGTT against Cacng7, the z-score is reported as inactive: -0.486. For GGCGGAAACUGAUCAGCUUTT against Fosb, the z-score was inactive: 0.234. With GGAAGAGCUGGAGUCAGAUTT against Gemin8 the z-score was inactive: -0.051. For GGUACACUGAGUCUGGAAGTT against Lsm11, the z-score was inactive: -1.2. With CCAUACAAAAAGCUUAGACTT against Slit2 the z-score was inactive: -0.689. For GAAGAAACGGCACAGCAAGTT against Egr4, the z-score was inactive: -0.0816. In the case of CCGUGUUACUAUACUCUGUTT against Pabpn1, the z-score is reported as inactive: -1.81. For GGAUGGGCCAUAUUGUCCUTT against Rita1, the z-score was inactive: -1.19. In the case of CGAUGCUAGAGAUUAAUCATT against Rdh10, the z-score is reported as inactive: -0.0597. With CCAAGCCGCUGAACAAUUUTT against Rnase6 the z-score was inactive: -0.468. With CCGACGUGUUUGUUGUUGGTT against Gtf2i the z-score was inactive: -0.36. In the case of GGGACAUUGUGUUGGACGUTT against Srek1ip1, the z-score is reported as inactive: 1.24. For “CCCAAUAAAAUAUCACCAGTT against 1700074P13Rik”, the z-score was inactive: -0.445. For GGAGAAUGCAAACAUCUCUTT against Slfn2, the z-score was inactive: 0.424. With GGAAAACCUAAUAAGGUUCTT against Iqce the z-score was active: 2.72. For GCCUAACCAACAAUUCUACTT against Oas1b, the z-score was inactive: 1.61. In the case of GCACAAUGACGCACUUACCTT against Pik3r2, the z-score is reported as inactive: 0.693. In the case of GGAGUCAAAGCUCUUUAUUTT against Pitpnb, the z-score is reported as inactive: 0.0674. For GGAUAUGGAUAAAUGACAUTT against Sbno1, the z-score was inactive: -0.535. In the case of GCACUGCUAUUUACAAAAATT against Tex16, the z-score is reported as inactive: -1.73. For GGCGACAUGUACAAUGACUTT against Mettl9, the z-score was inactive: 0.721. In the case of CAAGAUGAUUAUUAGAGAGTT against Gm5142, the z-score is reported as inactive: -0.773. In the case of “GGACUCUUACCACAUAAUGTT against 1110059E24Rik”, the z-score is reported as inactive: -1.48. For GGAUAUAAACCUCAUCCAATT against Mrgpre, the z-score was inactive: 1.14. With GGAGCUGAAGCCAUUCAACTT against Gpx6 the z-score was active: 2.08. With CCUUAUGUCCCUAAGGCUATT against Mbd3 the z-score was inactive: -0.109. With GCGGAAAUCUAAUUGCUUGTT against Kat5 the z-score was inactive: -0.0418. For GGGCGAUGGAAAGCCUUUUTT against Olfr354, the z-score was inactive: 0.301. In the case of GAUGUGGGUUUUCUCUAACTT against Ly6g6c, the z-score is reported as inactive: 0.602. For GCCAUUUAUCCGGUACGACTT against Actr3b, the z-score was inactive: 0.409. With GGAGAUGGAUUCCAAGGUATT against Rnf40 the z-score was inactive: 0.378. For GGACAAAAAUGGCAAUACUTT against A26c3, the z-score was inactive: 0.509. In the case of CGGGCUCAGGUAAAACUCUTT against Ddx31, the z-score is reported as inactive: -0.217. For GGUUCUGAACAAAAAACUCTT against Pola2, the z-score was inactive: 0.167.
